Test results as given in patent US20160136272A1, “METHODS FOR RESTORING CORTICOSTEROID SENSITIVITY” (priority 2013, published 2016).
At least one structure is not confirmed: it was looked up by name or label, or the drawing left a doubt.

Assays:
BEAS-2B cell line = assay: IL-6 and IP-10 production by BEAS-2B cells in response to polyAU (ELISA); format: cell-based, human; settings: corticosteroid dose range, 300 μg/ml IPH3102, 24 h
Description: IL-6 and IP-10 production was assessed in PBMC and virus-transformed lung epithelial BEAS-2B cell line in response to high molecular weight polyAU (IPH3102), a specific agonist of TLR3. Experiments with BEAS-2B were performed in Bronchial Epithelial Growth Medium (Lonza, #CC-3170). 2×10^4 BEAS-2B per well were plated in flat-bottom 96W plates in 100 μl culture medium and incubated over night at 37° C. A part of the cells was treated for 24-supplemental hours with 1000 UI/ml Intron A (Schering Plough, IFN-alpha 2b). Medium was discarded and 37B7 anti-human TLR3 Ab (0.01 and 0.1 μg/ml in the condition without Intron A and 0.01 and 0.3 μg/ml after treatment with Intron A) was added to the culture. Cells were incubated 30 min at 37° C. prior addition of Dexamethasone (1, 0.1, 0.01, 0.001 μg/ml in the condition […] and 10, 1, 0.1, 0.01 μg/ml after treatment with Intron A) or Budesonide (1, 0.1, 0.01, 0.001 μg/ml). Cells were incubated 30-additional min at 37° C. before addition of 300 μg/ml IPH3102. Cells were finally incubated for 24-additional hours and supernatants were harvested to quantify IL-6 and IP-10 production by ELISA.

[1] = system: Balb/c mice with TNBS-induced colitis; assay: Mild TNBS-colitis, low-dose corticosteroid (corticosteroid-insensitivity) mouse model (Example 10); format: in vivo; settings: dexamethasone s.c. daily
[2] = 7 days after TNBS 2 mg/mouse, antibody 500 μg/mouse i.p.

Compound	IL-6 production by BEAS-2B (in words) (BEAS-2B cell line)	colonic wall thickness [1, 2]	macroscopic damage score [1, 2]	disease activity index (DAI) ([1]; TNBS 2 mg/mouse i.c., antibody 500 μg/mouse i.p. day 0 and 3, days 0-7)	TNBS-induced weight loss (body weight) ([1]; TNBS 2 mg/mouse i.c., antibody 500 μg/mouse i.p. day 0 and 3, days 0-7, vs saline control)
CCCC1O[C@@H]2C[C@H]3[C@@H]4CCC5=CC(=O)C=C[C@]5(C)[C@H]4[C@@H](O)C[C@]3(C)[C@]2(C(=O)CO)O1 (stereo partly drawn) [Budesonide, reference compound]	inhibit IL-6 production in a dose-dependent manner				
C[C@@H]1C[C@H]2[C@@H]3CCC4=CC(=O)C=C[C@]4(C)[C@@]3(F)[C@@H](O)C[C@]2(C)[C@@]1(O)C(=O)CO [Dexamethasone, dexamethasone]	inhibit IL-6 production in a dose-dependent manner	significant increase	little protective effect	did not inhibit TNBS-induced disease activity	could not inhibit weight loss
